Values from PubChem BioAssay AID652259 (Drosophila RNAi Screening Center, 2013).
Assay: 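Identify new Wingless signalling regulators in fly cells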 (primary screen). Cells: Drosophila clone 8 imaginal disc epithelial cells. Knock-down reagent: long dsRNA against Drosophila genes. Conditions: pathway stimulated by co-transfected Wingless expression plasmid. Read-out: 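Dual luciferase reads per well after Wingless plasmid stimulation: reporter firefly light and Renilla control light; activity is firefly divided by Renilla, a ratio not deposited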. Reading the numbers: firefly reporter light: higher = more Wg reporter light, before normalisation; Renilla control light: higher = more transfected or surviving cells. Hit rule: 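a knock-down is a candidate when at least two out of four statistical tests show it departing from its plate mean; one test alone signals a weak candidate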. Meaning of the calls: active = candidate regulator (raises or lowers reporter); inactive = not a candidate.
The deposit covers about 22,000 reagents; shown is an unselected part of those that have a named target and a result. Of all reagents, 233 (1.1%) got an active call. 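Light values are raw, unnormalised plate reads; the ratio scores behind the reporter calls were not deposited.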 A plus sign joins genes that one reagent is predicted to hit. Reagent sequences are not shown. Not stated in the record: the amount of reagent, the time to read-out, the dose of the treatment.

For CG33003 [DRSC22419], what does the deposit list?
firefly reporter light, replicate 1: 6.75e5; firefly reporter light, replicate 2: 6.53e5; Renilla control light, replicate 1: 2.89e5; Renilla control light, replicate 2: 2.80e5; activity call: inactive

With CG9897 + asRNA:CR42742 [DRSC04595], how do the results read?
firefly reporter light, replicate 1: 2433; firefly reporter light, replicate 2: 5185; Renilla control light, replicate 1: 867; Renilla control light, replicate 2: 1941; activity call: inactive

For CG30375 [DRSC06834], what does the deposit list?
firefly reporter light, replicate 1: 2679; firefly reporter light, replicate 2: 4776; Renilla control light, replicate 1: 630; Renilla control light, replicate 2: 2267; activity call: inactive

What is on record for blanks [DRSC09757]?
firefly reporter light, replicate 1: 2016; firefly reporter light, replicate 2: 8085; Renilla control light, replicate 1: 1252; Renilla control light, replicate 2: 3895; activity call: inactive

What did the screen give for CG33462 [DRSC22902]?
firefly reporter light, replicate 1: 4.27e5; firefly reporter light, replicate 2: 5.49e5; Renilla control light, replicate 1: 1.79e5; Renilla control light, replicate 2: 1.02e5; activity call: inactive

What did the screen give for CG10793 [DRSC17760]?
firefly reporter light, replicate 1: 16117; Renilla control light, replicate 1: 10930; activity call: inactive

For CG3557 [DRSC00614], what does the deposit list?
firefly reporter light, replicate 1: 12560; Renilla control light, replicate 1: 4747; activity call: inactive

With Pka-C1 (Protein kinase, cAMP-dependent, catalytic subunit 1) [DRSC03399], how do the results read?
firefly reporter light, replicate 1: 8249; Renilla control light, replicate 1: 3252; activity call: inactive

With GramD1B (GRAM domain containing 1B) [DRSC00426], what does the deposit list?
firefly reporter light, replicate 1: 2451; firefly reporter light, replicate 2: 6157; Renilla control light, replicate 1: 1587; Renilla control light, replicate 2: 1312; activity call: inactive

Which result is listed for GramD1B (GRAM domain containing 1B) [DRSC00591]?
firefly reporter light, replicate 1: 13638; Renilla control light, replicate 1: 3101; activity call: inactive

With Mocs2A + Mocs2B [DRSC13697], what does the deposit list?
firefly reporter light, replicate 1: 2235; Renilla control light, replicate 1: 336; activity call: inactive

Which result is listed for Mocs2A + Mocs2B [DRSC14219]?
firefly reporter light, replicate 1: 23059; Renilla control light, replicate 1: 20043; activity call: inactive

How did the screen score CG9676 [DRSC20204]?
firefly reporter light, replicate 1: 15780; Renilla control light, replicate 1: 9175; activity call: inactive

Which result is listed for CG4928 [DRSC19342]?
firefly reporter light, replicate 1: 2071; firefly reporter light, replicate 2: 4577; Renilla control light, replicate 1: 681; Renilla control light, replicate 2: 1581; activity call: inactive

How did the screen score CG13737 [DRSC10064]?
reporter change call, replicate 1: Wg reporter activity lowered; firefly reporter light, replicate 1: 5226; Renilla control light, replicate 1: 3445; activity call: active

For CG8349 [DRSC03083], how do the results read?
firefly reporter light, replicate 1: 3325; firefly reporter light, replicate 2: 7916; Renilla control light, replicate 1: 992; Renilla control light, replicate 2: 3195; activity call: inactive

For Cad86C (Cadherin 86C) [DRSC15587], how do the results read?
firefly reporter light, replicate 1: 19476; Renilla control light, replicate 1: 6441; activity call: inactive

For Cad86C (Cadherin 86C) [DRSC15611], how do the results read?
firefly reporter light, replicate 1: 10928; Renilla control light, replicate 1: 3280; activity call: inactive

What is on record for Muc68E (Mucin 68E) [DRSC09146]?
firefly reporter light, replicate 1: 4482; firefly reporter light, replicate 2: 7.71e5; Renilla control light, replicate 1: 2250; Renilla control light, replicate 2: 3.83e5; activity call: inactive

How did the screen score kud (kuduk) [DRSC11086]?
firefly reporter light, replicate 1: 7356; Renilla control light, replicate 1: 2898; activity call: inactive

With Rpn3 (Regulatory particle non-ATPase 3) [DRSC03318], what does the deposit list?
firefly reporter light, replicate 1: 1604; firefly reporter light, replicate 2: 4968; Renilla control light, replicate 1: 487; Renilla control light, replicate 2: 2195; activity call: inactive

With beat-IV (beaten path IV) [DRSC14195], what was measured?
firefly reporter light, replicate 1: 2488; firefly reporter light, replicate 2: 6333; Renilla control light, replicate 1: 1397; Renilla control light, replicate 2: 1959; activity call: inactive

What is on record for beat-IV (beaten path IV) [DRSC14673]?
firefly reporter light, replicate 1: 20037; Renilla control light, replicate 1: 10235; activity call: inactive

For hig (hikaru genki) [DRSC07628], what was measured?
firefly reporter light, replicate 1: 21816; Renilla control light, replicate 1: 4666; activity call: inactive

For hig (hikaru genki) [DRSC22827], what was measured?
firefly reporter light, replicate 1: 5.39e5; firefly reporter light, replicate 2: 5.54e5; Renilla control light, replicate 1: 2.00e5; Renilla control light, replicate 2: 2.46e5; activity call: inactive

What is on record for hig (hikaru genki) [DRSC22899]?
firefly reporter light, replicate 1: 6.73e5; firefly reporter light, replicate 2: 5.26e5; Renilla control light, replicate 1: 2.19e5; Renilla control light, replicate 2: 1.44e5; activity call: inactive

For CG15406 [DRSC00420], what was measured?
firefly reporter light, replicate 1: 1953; firefly reporter light, replicate 2: 5799; Renilla control light, replicate 1: 1045; Renilla control light, replicate 2: 2283; activity call: inactive

With CG30395 [DRSC03896], what does the deposit list?
firefly reporter light, replicate 1: 18028; Renilla control light, replicate 1: 10416; activity call: inactive

What is on record for Drip [DRSC07405]?
firefly reporter light, replicate 1: 8194; Renilla control light, replicate 1: 2993; activity call: inactive

What is on record for CG17026 [DRSC10237]?
firefly reporter light, replicate 1: 8525; firefly reporter light, replicate 2: 7.19e5; Renilla control light, replicate 1: 3924; Renilla control light, replicate 2: 3.13e5; activity call: inactive

With Tmhs (Tetraspan membrane protein in hair cell stereocilia) [DRSC08231], how do the results read?
firefly reporter light, replicate 1: 14563; Renilla control light, replicate 1: 5858; activity call: inactive

Which result is listed for TkR86C (Tachykinin-like receptor at 86C) [DRSC16880]?
firefly reporter light, replicate 1: 18090; Renilla control light, replicate 1: 4474; activity call: inactive

Reformatted: 2 of the entries above
{"predicted target":"Cad86C (Cadherin 86C)","dsRNA":"DRSC15587","firefly reporter light, replicate 1":19476,"Renilla control light, replicate 1":6441,"activity call":"inactive"}
{"predicted target":"Cad86C (Cadherin 86C)","dsRNA":"DRSC15611","firefly reporter light, replicate 1":10928,"Renilla control light, replicate 1":3280,"activity call":"inactive"}
